Results are given in words; binding and its absence hold for the method and conditions named. In cells and extracts the contact can be indirect. Some results given as binding are weak or reduced against the parent protein; the word gives no strength. For some of these results: Sequences can lack the tags named with a protein.
T1: Syndecan-4 fused to an extracellular HA-tag, in DI TNC1 astrocytes (UniProt P31431)
T1 sequence: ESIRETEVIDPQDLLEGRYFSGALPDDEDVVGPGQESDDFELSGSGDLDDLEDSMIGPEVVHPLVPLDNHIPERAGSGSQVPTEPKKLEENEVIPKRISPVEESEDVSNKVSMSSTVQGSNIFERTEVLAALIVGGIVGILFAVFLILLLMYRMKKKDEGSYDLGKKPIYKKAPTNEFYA

By UniProt entry, the sequences of proteins in these tests, tags left out.
UniProt Q99NH2: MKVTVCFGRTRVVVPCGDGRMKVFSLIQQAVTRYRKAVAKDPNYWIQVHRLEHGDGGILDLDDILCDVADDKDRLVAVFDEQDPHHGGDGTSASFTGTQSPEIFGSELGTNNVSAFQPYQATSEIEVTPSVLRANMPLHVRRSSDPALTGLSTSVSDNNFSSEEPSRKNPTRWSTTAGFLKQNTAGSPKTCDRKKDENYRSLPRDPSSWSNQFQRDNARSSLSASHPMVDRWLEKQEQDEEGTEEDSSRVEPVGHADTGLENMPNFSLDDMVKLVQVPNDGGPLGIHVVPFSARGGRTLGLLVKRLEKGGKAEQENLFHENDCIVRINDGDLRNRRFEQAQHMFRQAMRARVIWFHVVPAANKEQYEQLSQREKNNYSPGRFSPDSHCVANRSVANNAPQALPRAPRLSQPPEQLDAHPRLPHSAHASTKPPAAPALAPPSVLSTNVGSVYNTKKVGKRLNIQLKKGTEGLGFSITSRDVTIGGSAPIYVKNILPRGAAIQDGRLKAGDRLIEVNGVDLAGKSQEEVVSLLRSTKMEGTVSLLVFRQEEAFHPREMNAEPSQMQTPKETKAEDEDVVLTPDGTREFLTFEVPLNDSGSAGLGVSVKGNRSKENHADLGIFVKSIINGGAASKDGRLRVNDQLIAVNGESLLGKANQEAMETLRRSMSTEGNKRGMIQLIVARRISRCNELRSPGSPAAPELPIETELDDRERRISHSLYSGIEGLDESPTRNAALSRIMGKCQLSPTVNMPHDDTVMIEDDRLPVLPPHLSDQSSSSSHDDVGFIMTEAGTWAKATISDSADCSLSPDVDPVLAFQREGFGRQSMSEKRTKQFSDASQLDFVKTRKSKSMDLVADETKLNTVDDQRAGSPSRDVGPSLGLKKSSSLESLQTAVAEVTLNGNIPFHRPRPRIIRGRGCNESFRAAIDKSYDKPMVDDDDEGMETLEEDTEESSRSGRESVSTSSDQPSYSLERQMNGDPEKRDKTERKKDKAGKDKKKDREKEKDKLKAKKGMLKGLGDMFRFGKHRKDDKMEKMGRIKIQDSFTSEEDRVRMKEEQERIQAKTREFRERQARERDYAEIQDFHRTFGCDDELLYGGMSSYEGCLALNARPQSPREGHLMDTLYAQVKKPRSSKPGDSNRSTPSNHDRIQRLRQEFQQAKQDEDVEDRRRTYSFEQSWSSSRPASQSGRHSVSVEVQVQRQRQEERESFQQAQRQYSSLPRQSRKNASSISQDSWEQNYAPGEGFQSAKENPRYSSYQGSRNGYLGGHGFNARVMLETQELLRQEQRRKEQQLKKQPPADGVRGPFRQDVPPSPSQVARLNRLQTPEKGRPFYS
UniProt O35346: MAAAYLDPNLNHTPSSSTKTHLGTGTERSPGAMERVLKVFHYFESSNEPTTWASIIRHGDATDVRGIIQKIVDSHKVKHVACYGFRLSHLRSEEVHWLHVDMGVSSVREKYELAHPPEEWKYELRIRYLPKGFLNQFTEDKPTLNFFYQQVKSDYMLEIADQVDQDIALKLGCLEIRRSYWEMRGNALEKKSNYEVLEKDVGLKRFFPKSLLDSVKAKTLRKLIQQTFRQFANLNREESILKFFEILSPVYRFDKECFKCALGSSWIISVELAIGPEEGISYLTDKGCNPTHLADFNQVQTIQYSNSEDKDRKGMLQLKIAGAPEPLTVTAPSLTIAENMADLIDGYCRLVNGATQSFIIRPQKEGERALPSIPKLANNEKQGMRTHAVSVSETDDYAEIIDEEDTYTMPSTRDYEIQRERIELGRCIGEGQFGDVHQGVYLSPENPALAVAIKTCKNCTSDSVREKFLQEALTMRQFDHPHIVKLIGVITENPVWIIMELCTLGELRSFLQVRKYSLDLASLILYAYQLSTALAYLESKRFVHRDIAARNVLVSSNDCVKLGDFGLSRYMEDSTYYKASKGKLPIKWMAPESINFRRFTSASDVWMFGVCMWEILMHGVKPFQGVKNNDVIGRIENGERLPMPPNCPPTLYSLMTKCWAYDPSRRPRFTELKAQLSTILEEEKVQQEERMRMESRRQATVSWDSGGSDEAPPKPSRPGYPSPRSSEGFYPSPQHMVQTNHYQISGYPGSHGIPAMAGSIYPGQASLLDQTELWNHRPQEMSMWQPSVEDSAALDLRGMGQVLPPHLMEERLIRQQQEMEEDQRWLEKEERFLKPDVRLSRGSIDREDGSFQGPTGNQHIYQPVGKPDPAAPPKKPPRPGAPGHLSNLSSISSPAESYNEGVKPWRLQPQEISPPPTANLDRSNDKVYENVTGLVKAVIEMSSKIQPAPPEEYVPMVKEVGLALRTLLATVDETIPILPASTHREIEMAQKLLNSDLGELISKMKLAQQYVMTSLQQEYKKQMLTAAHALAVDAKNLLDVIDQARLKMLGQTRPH

T2: biotinylated Syndecan-4 cytoplasmic tail peptide (K K A P T N E F Y A)
T2 sequence (peptide, biotin (position not stated)): KKAPTNEFYA


Tests used:
[1] = target: T1, Syndecan-4 fused to an extracellular HA-tag, in DI TNC1 astrocytes; assay: co-IP; DI TNC1 cells transfected with Syndecan-4-HA, non-stimulated or treated with Thy-1-Fc-Protein A or TRAIL-R2-Fc-Protein A for 30 min; lysis in 20 mM Tris-HCl pH 7.4, 0.15 N NaCl, 0.5% NP-40; precipitation with mouse anti-HA; blots for PAR-3, FAK, Syndecan-4, Syntenin
[2] = target: T1, Syndecan-4 fused to an extracellular HA-tag, in DI TNC1 astrocytes; assay: proximity ligation; DI TNC1 cells transfected with Syndecan-4-HA or empty plasmid, non-stimulated or treated with Thy-1-Fc-Protein A or TRAIL-R2-Fc-Protein A for 30 min, fixed, permeabilized; DuoLink PLA with antibodies against PAR-3 and HA
[3] = target: T2, biotinylated Syndecan-4 cytoplasmic tail peptide (K K A P T N E F Y A); assay: pull-down; biotinylated peptides (15 ug/sample) on streptavidin-Sepharose beads incubated with lysates of DI TNC1 cells, non-stimulated or stimulated with FBS or Thy-1-Fc-Protein A; immunoblot for PAR-3 and Syntenin; only the target purified
[4] = target: PAR-3 of mouse embryonic fibroblasts (mouse (endogenous in MEFs)) (UniProt Q99NH2); assay: co-IP; MEFs stably transfected with Syndecan-4-HA, non-stimulated or stimulated with Thy-1-Fc-Protein A (30 min) or 3% FBS (3 min); lysates precipitated with rabbit anti-PAR-3; blots for HA and Syntenin

| Molecule | binding [1] | binding [2] | binding [3] | binding [4] |
| --- | --- | --- | --- | --- |
| Focal Adhesion Kinase (from UniProt O35346 1-1055) (enzyme) | binds |  |  |  |
| Atypical protein kinase C isotype-specific interacting (PAR-3) (from UniProt Q9Z340-1 1-1337) | binds | binds | binds |  |
| Syntenin-1 (protein, UniProt Q9JI92 1-300) MSLYPSLEDLKVDKVIQAQTASSANPASQAFFLNVVDSAAFPPGGNLYPKLYPELSQYMGLSLSEAEICENMPVVSGAPTQGQLVARPSSVNYMVAPVTGNDAGIRRAEIKQGIREVILCKDQDGKIGLRLKSVDNGIFVQLVQANSPASLVGLRFGDQVLQINGENCAGWSSDKAHKVLKQAFGEKITMTIRDRPFERTVTMHKDSSGHVGFIFKSGKITSIVKDSSAARNGLLTDHHICEINGQNVIGLKDAQIADILSTAGTVVTITIMPAFIFEHIIKRMAPSIMKSLMDHTIPEV | binds |  | binds |  |
| Syndecan-4 fused to an extracellular HA-tag, in mouse embryonic fibroblasts (receptor, UniProt P31431 19-198) ESIRETEVIDPQDLLEGRYFSGALPDDEDVVGPGQESDDFELSGSGDLDDLEDSMIGPEVVHPLVPLDNHIPERAGSGSQVPTEPKKLEENEVIPKRISPVEESEDVSNKVSMSSTVQGSNIFERTEVLAALIVGGIVGILFAVFLILLLMYRMKKKDEGSYDLGKKPIYKKAPTNEFYA |  |  |  | binds |

Reference: article PMC7433185
